Laboratory results published in the supplement of paper PMC7024190.
Where a name gives a salt, the structure may show the parent alone. The list shows a part of the results. Repeats in this data set agree poorly, so a single value says little.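 A first-round screen of about ten thousand compounds sought those raising reporter output, using human embryonic kidney cells briefly transfected with a plasmid carrying a Renilla luciferase gene driven by the HSV-TK promoter.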

Tested on: HEK 293FT
Assay: log relative Renilla luciferase luminescence (reporter expression vs reference, reference not stated) (log (base not stated)); higher = higher recombinant reporter expression
Conditions: 10 µM; time after transfection 48 h

Q: `CN1[C@@H]2CC[C@H]1C[C@@H](OC(c1ccccc1)c1ccccc1)C2` [Benztropine mesylate] was tested. Which log did it give?
A: Its log is 0.0732.

Q: Which log does the source give for `CC(=O)Nc1ccc(OCC(O)CNC(C)C)cc1` (configuration not stated) [Practolol] here?
A: Its log is -0.0642.

Q: `CC(=O)OCC(=O)[C@@]12OC3(CCCC3)O[C@@H]1C[C@H]1[C@@H]3CCC4=CC(=O)C=C[C@]4(C)[C@@]3(F)[C@@H](O)C[C@@]12C` [Amcinonide] was tested. Which log did it give?
A: The log was -0.159.

Q: For `N=C(N=C(N)N)N1CCOCC1` [Moroxidine hydrochloride], which log is on record?
A: The log was 0.0466.

Q: Which log does the source give for `Cc1cccc(C)c1NC(=O)CN1CCN(CCCC(c2ccc(F)cc2)c2ccc(F)cc2)CC1` [Lidoflazine] here?
A: The log was -0.293.

Q: `CC(=O)O[C@]1(C(C)=O)CC[C@H]2[C@@H]3C=C(C)C4=CC(=O)CC[C@]4(C)[C@H]3CC[C@@]21C` [Megestrol acetate] was tested. Which log did it give?
A: The log was -0.0173.

Q: For `CC[C@@]1(O)C(=O)OCc2c1cc1n(c2=O)Cc2cc3c(CN(C)C)c(O)ccc3nc2-1` [Topotecan], which log is on record?
A: The log was -0.415.

Q: For `Nc1nnc(-c2cccc(Cl)c2Cl)c(N)n1` [Lamotrigine], which log is on record?
A: Its log is -0.0127.

Q: `Clc1cc(Cl)c(OCC#CI)cc1Cl` [Haloprogin] was tested. Which log did it give?
A: Its log is -0.162.

Q: With `Nc1nc(=O)[nH]cc1F` [Flucytosine] as the compound, how does the log read?
A: Its log is 0.126.

Q: How did the log turn out when `CC(=O)NC[C@H]1CN(c2ccc(N3CCOCC3)c(F)c2)C(=O)O1` [Linezolid] was run?
A: Its log is -0.117.

Q: For `Cc1nccn1CC1CCc2c(c3ccccc3n2C)C1=O` (configuration not stated) [Ondansetron Hydrochloride], which log is on record?
A: The log was 0.00137.

Q: How did the log turn out when `O=C1C(O)=C(O)C(=O)C(O)=C1O` [Tetrahydroxy-1,4-quinone monohydrate] was run?
A: Its log is -0.157.

Q: For `COc1ccc2c(c1)c(CC(=O)OCC(=O)O)c(C)n2C(=O)c1ccc(Cl)cc1` [Acemetacin], which log is on record?
A: The log was 0.156.

Q: With `CCOCCn1c(N2CCCN(C)CC2)nc2ccccc21` [Emedastine] as the compound, how does the log read?
A: Its log is 0.0346.

Q: Which log does the source give for `CC1=C(C(=O)O)N2C(=O)[C@@H](NC(=O)[C@H](N)c3ccccc3)[C@H]2SC1` [Cephalexin monohydrate] here?
A: The log was -0.0188.

Q: With `CC[C@H](C)C(=O)O[C@H]1C[C@H](O)C=C2C=C[C@H](C)[C@H](CC[C@@H](O)C[C@@H](O)CC(=O)O)[C@H]21` [Pravastatin] as the compound, how does the log read?
A: Its log is 0.0824.

Q: For `CC(C)(C)NCC(O)COc1cccc2c1CC(O)C(O)C2` (configuration not stated) [Nadolol], which log is on record?
A: Its log is -0.157.

Q: For `CC(C)Cn1cnc2c(N)nc3ccccc3c21` [Imiquimod], which log is on record?
A: The log was -0.259.

Q: For `NC(=O)N1c2ccccc2CC(=O)c2ccccc21` [Oxcarbazepine], which log is on record?
A: The log was -0.00375.

Q: Which log does the source give for `Cc1cccc(Nc2ccncc2S(=O)(=O)NC(=O)NC(C)C)c1` [Torsemide] here?
A: The log was 0.0241.

Q: `CC[N+](CC)(CC(=O)Nc1c(C)cccc1C)Cc1ccccc1` [Denatonium benzoate] was tested. Which log did it give?
A: The log was -0.834.

Q: For `COc1cc(NS(=O)(=O)c2ccc(N)cc2)nc(OC)n1` [Sulfadimethoxine], which log is on record?
A: Its log is -0.0818.

Q: With `CC1(C)O[C@@H]2[C@@H](CO[C@@]3(COS(N)(=O)=O)OC(C)(C)O[C@@H]23)O1` [Topiramate] as the compound, how does the log read?
A: Its log is -0.144.

Q: With `CN(Cc1ccc(C(C)(C)C)cc1)Cc1cccc2ccccc12` [Butenafine Hydrochloride] as the compound, how does the log read?
A: Its log is -0.0878.

Q: How did the log turn out when `S=c1[nH]cnc2nc[nH]c12` [Mercaptopurine] was run?
A: The log was -0.117.

Q: How did the log turn out when `CCCCCCCCNC(C)C(O)c1ccc(SC(C)C)cc1` (configuration not stated) [Suloctidil] was run?
A: Its log is -0.362.

Q: With `CC(=O)CC(c1ccc([N+](=O)[O-])cc1)c1c(O)c2ccccc2oc1=O` (configuration not stated) [Acenocoumarol] as the compound, how does the log read?
A: Its log is -0.309.

Q: Which log does the source give for `COc1ccc2c3c1O[C@H]1C[C@@H](O)C=C[C@@]31CCN(C)C2` [Galanthamine hydrobromide] here?
A: The log was -0.0328.

Q: `O=c1[nH]c(=O)n([C@H]2C[C@H](O)[C@@H](CO)O2)cc1C(F)(F)F` [Trifluridine] was tested. Which log did it give?
A: The log was 0.0269.

Q: For `Cc1nnc(SCC2=C(C(=O)O)N3C(=O)[C@@H](NC(=O)Cn4cnnn4)[C@H]3SC2)s1` [Cefazolin sodium salt], which log is on record?
A: The log was -0.0706.

Q: With `CC(C)NC(=N)NC(=N)Nc1ccc(Cl)cc1` [Proguanil hydrochloride] as the compound, how does the log read?
A: The log was -0.0733.

Q: Which log does the source give for `C[C@]12CCC(=O)C=C1C=C[C@@H]1[C@@H]2CC[C@@]2(C)[C@H]1CC[C@@]21CCC(=O)O1` [Canrenone] here?
A: The log was -0.179.

Q: For `NC(=O)OCC(O)COc1ccc(Cl)cc1` (configuration not stated) [Chlorphensin carbamate], which log is on record?
A: The log was 0.0655.

Q: Which log does the source give for `CC1(C)S[C@@H]2[C@H](NC(=O)[C@H](N)c3ccccc3)C(=O)N2[C@H]1C(=O)OC1OC(=O)c2ccccc21` (some centres not stated) [Talampicillin hydrochloride] here?
A: Its log is 0.00502.

Q: `COCCOC(=O)C1=C(C)NC(C)=C(C(=O)OC(C)C)C1c1cccc([N+](=O)[O-])c1` (configuration not stated) [Nimodipine] was tested. Which log did it give?
A: Its log is -1.52.

Q: How did the log turn out when `CN1C(C(=O)Nc2ccccn2)=C(O)c2ccccc2S1(=O)=O` [Piroxicam] was run?
A: The log was 0.0612.

Q: How did the log turn out when `COC(=O)CCc1ccc(OCC(O)CNC(C)C)cc1` (configuration not stated) [Esmolol hydrochloride] was run?
A: Its log is 0.0523.

Q: With `NC(=O)c1ccc[n+]([C@@H]2O[C@H](COP(=O)([O-])OP(=O)(O)OC[C@H]3O[C@@H](n4cnc5c(N)ncnc54)[C@H](O)[C@@H]3O)[C@@H](O)[C@H]2O)c1` [Nadide] as the compound, how does the log read?
A: Its log is -0.0609.

Q: With `CNCCC=C1c2ccccc2C=Cc2ccccc21` [Norcyclobenzaprine] as the compound, how does the log read?
A: The log was -0.0865.

Q: Which log does the source give for `Cc1ccc(C)c(OCCCC(C)(C)C(=O)O)c1` [Gemfibrozil] here?
A: The log was 0.0127.

Q: For `O=C(CCCN1CCC(O)(c2ccc(Cl)cc2)CC1)c1ccc(F)cc1` [Haloperidol], which log is on record?
A: Its log is 0.102.

Q: `NS(=O)(=O)Cc1noc2ccccc12` [Zonisamide] was tested. Which log did it give?
A: Its log is 0.116.

Q: How did the log turn out when `CN(C)CCN(Cc1ccc(Cl)cc1)c1ccccn1` [Chloropyramine hydrochloride] was run?
A: Its log is -0.167.

Q: `COc1ccc2c(c1)C(=O)N(CCc1ccc(S(=O)(=O)NC(=O)NC3CCCCC3)cc1)C(=O)C2(C)C` [Gliquidone] was tested. Which log did it give?
A: Its log is -0.0785.

Q: How did the log turn out when `Cc1cn([C@H]2C[C@H](N=[N+]=[N-])[C@@H](CO)O2)c(=O)[nH]c1=O` [Zidovudine, AZT] was run?
A: Its log is -0.0275.

Q: With `COc1ccc([C@@H]2Sc3ccccc3N(CCN(C)C)C(=O)[C@@H]2OC(C)=O)cc1` [Diltiazem hydrochloride] as the compound, how does the log read?
A: The log was 0.125.

Q: `CC(C[N+](C)(C)C)OC(N)=O` (configuration not stated) [Bethanechol chloride] was tested. Which log did it give?
A: Its log is 0.0496.

Q: Which log does the source give for `COc1cccc(N(C)C(=S)Oc2ccc3c(c2)CCCC3)n1` [Liranaftate] here?
A: The log was -1.17.

Q: `NCCc1cc[nH]n1` [Betazole hydrochloride] was tested. Which log did it give?
A: The log was 0.0303.

Q: How did the log turn out when `CCCNC(C)C(=O)Nc1c(C)csc1C(=O)OC` (configuration not stated) [Articaine hydrochloride] was run?
A: Its log is 0.121.

Q: For `Cc1c(NC(C)C)c(=O)n(-c2ccccc2)n1C` [Isopyrin hydrochloride], which log is on record?
A: The log was -0.145.
